The target in experiment [1] is α1-antitrypsin (α-1AT) (UniProt P01009). As to the kind of experiment: co-IP; HEK293T co-expressing empty vector, EDEM1 or ∆-EDEM1 with an ERAD substrate, lysed in CHAPS buffer; immunoprecipitation with antibodies for EDEM1 or for the substrate, Western blot for the co-precipitated protein (Figure 2G-J).
The target is the same in experiment [2]. Kind of experiment: co-IP; HEK293T co-expressing empty vector, EDEM1 or ∆-EDEM1 with α-1AT or NHK, labelled with 35S-Met/Cys for 20 min, lysed in CHAPS buffer; immunoprecipitation with antibodies for α-1AT or EDEM1, SDS-PAGE, autoradiography (Figure A1E).
Experiment [3] deals with T1, ER-degradation enhancing α-mannosidase-like (EDEM1) (UniProt Q92611).
T1 sequence: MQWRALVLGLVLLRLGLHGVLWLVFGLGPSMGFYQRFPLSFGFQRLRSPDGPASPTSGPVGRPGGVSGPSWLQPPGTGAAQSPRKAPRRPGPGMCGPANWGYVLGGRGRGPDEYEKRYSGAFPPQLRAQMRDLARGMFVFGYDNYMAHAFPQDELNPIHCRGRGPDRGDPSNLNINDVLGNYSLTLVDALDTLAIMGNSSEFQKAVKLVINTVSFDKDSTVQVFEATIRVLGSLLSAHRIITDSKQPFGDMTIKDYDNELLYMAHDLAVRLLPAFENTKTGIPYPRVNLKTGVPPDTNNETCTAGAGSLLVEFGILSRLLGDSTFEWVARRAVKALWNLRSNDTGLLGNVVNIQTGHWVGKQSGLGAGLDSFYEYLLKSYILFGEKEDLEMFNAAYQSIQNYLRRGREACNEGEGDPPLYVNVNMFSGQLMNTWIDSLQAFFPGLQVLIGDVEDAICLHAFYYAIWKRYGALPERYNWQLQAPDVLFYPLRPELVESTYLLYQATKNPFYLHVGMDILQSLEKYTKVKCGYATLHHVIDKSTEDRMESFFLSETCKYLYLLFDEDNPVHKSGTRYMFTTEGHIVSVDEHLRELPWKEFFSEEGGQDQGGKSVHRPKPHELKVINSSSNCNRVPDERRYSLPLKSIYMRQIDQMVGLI
As to the kind of experiment: co-IP; HEK293T overexpressing empty vector, EDEM1 or ∆-EDEM1, with or without 30 µM kifunensine overnight; CHAPS buffer; immunoprecipitation with antibodies for EDEM1, SEL1L, OS-9 or XTP3-B, Western blot for EDEM1, SEL1L, OS-9 and XTP3-B (Figure 3B-E; control siRNA samples of Figure A1J). A general note: In western blotting, separated proteins are transferred to a membrane and probed.

Sequences of proteins named here, by UniProt entry; tags and fusion partners are left off. Residues count along the entry.
UniProt P01009, residues 25-418: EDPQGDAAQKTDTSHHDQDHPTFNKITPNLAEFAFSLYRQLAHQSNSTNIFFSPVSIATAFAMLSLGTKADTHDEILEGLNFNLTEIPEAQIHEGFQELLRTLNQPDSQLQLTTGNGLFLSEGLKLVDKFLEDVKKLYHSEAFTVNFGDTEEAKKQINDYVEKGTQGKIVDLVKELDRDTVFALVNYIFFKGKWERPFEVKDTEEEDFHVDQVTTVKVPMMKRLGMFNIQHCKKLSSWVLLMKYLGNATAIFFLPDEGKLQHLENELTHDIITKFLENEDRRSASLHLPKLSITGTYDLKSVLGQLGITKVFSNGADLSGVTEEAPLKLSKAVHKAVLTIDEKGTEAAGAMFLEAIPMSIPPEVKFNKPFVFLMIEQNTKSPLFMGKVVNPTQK

No constants are given. Whether binding was seen depends on the method and setting. Binding seen in cells or lysates may run through a third protein. Some binding calls cover weakened binding; strength is not graded here.

B1: ER-degradation enhancing α-mannosidase-like (EDEM1) (protein, UniProt Q92611 1-657)
chain: T1 sequence
Regarding B1, the binding result in experiment [1] and in experiment [2] was “binds” in each case.

B2: XTP3-B (ERLEC1) (protein, UniProt Q96DZ1 34-483)
chain: LPQLSDDIPFRVNWPGTEFSLPTTGVLYKEDNYVIMTTAHKEKYKCILPLVTSGDEEEEKDYKGPNPRELLEPLFKQSSCSYRIESYWTYEVCHGKHIRQYHEEKETGQKINIHEYYLGNMLAKNLLFEKEREAEEKEKSNEIPTKNIEGQMTPYYPVGMGNGTPCSLKQNRPRSSTVMYICHPESKHEILSVAEVTTCEYEVVILTPLLCSHPKYRFRASPVNDIFCQSLPGSPFKPLTLRQLEQQEEILRVPFRRNKEEDLQSTKEERFPAIHKSIAIGSQPVLTVGTTHISKLTDDQLIKEFLSGSYCFRGGVGWWKYEFCYGKHVHQYHEDKDSGKTSVVVGTWNQEEHIEWAKKNTARAYHLQDDGTQTVRMVSHFYGNGDICDITDKPRQVTVKLKCKESDSPHAVTVYMLEPHSCQYILGVESPVICKILDTADENGLLSLPN
As for B2, the binding entry in experiment [3] is listed as “binds”.

These data come from article PMC7279049.
